Results are given in words; binding and its absence hold for the method and conditions named. For some of these results: Binding seen in cells or lysates may run through a third protein. Some binding calls cover weakened binding; strength is not graded here. For some of these results: Where a sequence is shown, tags or fusion partners need not be part of it.

This note sets out measurements from PMC9437563.

One assay deals with GST-RNF113A WT (human) (UniProt O15541). The experiment in a line: pull-down; GST-tagged RNF113A WT or mutants on Glutathione Sepharose beads; purified PPP4R3a added, overnight at 4 °C; 150 mM NaCl, 50 mM Tris pH 8, 0.1% NP40, 0.5 mM EDTA, 0.5 mM DTT; immunoblot; both purified. (In general: In western blotting, separated proteins are transferred to a membrane and probed.)
A further assay concerns the target T1, GST-RNF113A K20F (human) (UniProt O15541).
T1 sequence: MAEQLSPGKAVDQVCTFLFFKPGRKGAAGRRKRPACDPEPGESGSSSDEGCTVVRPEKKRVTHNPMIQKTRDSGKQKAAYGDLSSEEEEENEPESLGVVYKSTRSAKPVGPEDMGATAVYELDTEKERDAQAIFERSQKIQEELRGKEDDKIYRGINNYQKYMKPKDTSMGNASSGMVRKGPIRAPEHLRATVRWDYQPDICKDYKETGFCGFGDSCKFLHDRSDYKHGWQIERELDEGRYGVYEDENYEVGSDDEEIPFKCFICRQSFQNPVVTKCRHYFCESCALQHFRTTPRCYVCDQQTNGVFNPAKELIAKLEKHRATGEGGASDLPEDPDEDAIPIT
The description is as above.

The target of another assay is T2, GST-RNF113A K20A (human) (UniProt O15541).
T2 sequence: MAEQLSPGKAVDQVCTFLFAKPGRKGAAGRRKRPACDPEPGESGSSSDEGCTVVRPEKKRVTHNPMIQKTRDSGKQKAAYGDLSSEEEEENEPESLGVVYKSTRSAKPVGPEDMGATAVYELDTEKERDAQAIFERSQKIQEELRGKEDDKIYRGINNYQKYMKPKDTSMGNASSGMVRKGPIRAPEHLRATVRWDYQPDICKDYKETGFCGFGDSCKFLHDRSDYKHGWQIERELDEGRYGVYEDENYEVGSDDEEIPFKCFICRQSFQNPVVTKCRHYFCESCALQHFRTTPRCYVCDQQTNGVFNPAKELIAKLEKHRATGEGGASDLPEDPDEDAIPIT
Described as above.

For assay [1], the target named is HA-tagged RNF113A WT, transiently expressed in 293T cells (human) (UniProt O15541). Briefly: co-IP; HA-tagged RNF113A transiently expressed in 293T (36 h), anti-HA resin overnight at 4 °C; 50 mM Tris-HCl pH 8.0, 137 mM NaCl, 1 mM EDTA, 0.5% NP40, 10% glycerol; endogenous PPP4R3a by immunoblot.

B1: recombinant PPP4R3a (protein, UniProt Q6IN85 1-833)
chain: MTDTRRRVKVYTLNEDRQWDDRGTGHVSSGYVERLKGMSLLVRAESDGSLLLESKINPNTAYQKQQDTLIVWSEAENYDLALSFQEKAGCDEIWEKICQVQGKDPSVDITQDLVDESEEERFDDMSSPGLELPSCELSRLEEIAELVASSLPSPLRREKLALALENEGYIKKLLELFHVCEDLENIEGLHHLYEIIKGIFLLNRTALFEVMFSEECIMDVIGCLEYDPALSQPRKHREFLTKTAKFKEVIPISDPELKQKIHQTYRVQYIQDMVLPTPSVFEENMLSTLHSFIFFNKVEIVGMLQEDEKFLTDLFAQLTDEATDEEKRQELVNFLKEFCAFSQTLQPQNRDAFFKTLSNMGILPALEVILGMDDTQVRSAATDIFSYLVEYNPSMVREFVMQEAQQNDDVSKKLTEQKITSKDILLINLIIEHMICDTDPELGGAVQLMGLLRTLVDPENMLATANKTEKTEFLGFFYKHCMHVLTAPLLANTTEDKPSKDDFQTAQLLALVLELLTFCVEHHTYHIKNYIINKDILRRVLVLMASKHAFLALCALRFKRKIIGLKDEFYNRYIMKSFLFEPVVKAFLNNGSRYNLMNSAIIEMFEFIRVEDIKSLTAHVIENYWKALEDVDYVQTFKGLKLRFEQQRERQDNPKLDSMRSILRNHRYRRDARTLEDEEEMWFNTDEDDMEDGEAVVSPSDKTKNDDDIMDPISKFMERKKLKESEEKEVLLKTNLSGRQSPSFKLSLSSGTKTNLTSQSSTTNLPGSPGSPGSPGSPGSPGSVPKNTSQTAAITTKGGLVGLVDYPDDDEDDDEDEDKEDTLPLSKKAKFDS
B1: the binding result with GST-RNF113A WT (human) is given as “binds”; with GST-RNF113A K20F (human), “no binding”; with GST-RNF113A K20A (human), “binds”.

B2: endogenous PPP4R3a from 293T cell extracts (protein, UniProt Q6IN85 1-833)
chain: MTDTRRRVKVYTLNEDRQWDDRGTGHVSSGYVERLKGMSLLVRAESDGSLLLESKINPNTAYQKQQDTLIVWSEAENYDLALSFQEKAGCDEIWEKICQVQGKDPSVDITQDLVDESEEERFDDMSSPGLELPSCELSRLEEIAELVASSLPSPLRREKLALALENEGYIKKLLELFHVCEDLENIEGLHHLYEIIKGIFLLNRTALFEVMFSEECIMDVIGCLEYDPALSQPRKHREFLTKTAKFKEVIPISDPELKQKIHQTYRVQYIQDMVLPTPSVFEENMLSTLHSFIFFNKVEIVGMLQEDEKFLTDLFAQLTDEATDEEKRQELVNFLKEFCAFSQTLQPQNRDAFFKTLSNMGILPALEVILGMDDTQVRSAATDIFSYLVEYNPSMVREFVMQEAQQNDDVSKKLTEQKITSKDILLINLIIEHMICDTDPELGGAVQLMGLLRTLVDPENMLATANKTEKTEFLGFFYKHCMHVLTAPLLANTTEDKPSKDDFQTAQLLALVLELLTFCVEHHTYHIKNYIINKDILRRVLVLMASKHAFLALCALRFKRKIIGLKDEFYNRYIMKSFLFEPVVKAFLNNGSRYNLMNSAIIEMFEFIRVEDIKSLTAHVIENYWKALEDVDYVQTFKGLKLRFEQQRERQDNPKLDSMRSILRNHRYRRDARTLEDEEEMWFNTDEDDMEDGEAVVSPSDKTKNDDDIMDPISKFMERKKLKESEEKEVLLKTNLSGRQSPSFKLSLSSGTKTNLTSQSSTTNLPGSPGSPGSPGSPGSPGSVPKNTSQTAAITTKGGLVGLVDYPDDDEDDDEDEDKEDTLPLSKKAKFDS
As for B2, the binding entry in assay [1] was “binds”.
